# Reference: PubChem BioAssay (NCATS)
# The chains behind the UniProt entries cited, without tags or fusion partners. Where a name states a change or a piece, a line headed by the entry shows the natural chain unless it says otherwise.
# UniProt O95398: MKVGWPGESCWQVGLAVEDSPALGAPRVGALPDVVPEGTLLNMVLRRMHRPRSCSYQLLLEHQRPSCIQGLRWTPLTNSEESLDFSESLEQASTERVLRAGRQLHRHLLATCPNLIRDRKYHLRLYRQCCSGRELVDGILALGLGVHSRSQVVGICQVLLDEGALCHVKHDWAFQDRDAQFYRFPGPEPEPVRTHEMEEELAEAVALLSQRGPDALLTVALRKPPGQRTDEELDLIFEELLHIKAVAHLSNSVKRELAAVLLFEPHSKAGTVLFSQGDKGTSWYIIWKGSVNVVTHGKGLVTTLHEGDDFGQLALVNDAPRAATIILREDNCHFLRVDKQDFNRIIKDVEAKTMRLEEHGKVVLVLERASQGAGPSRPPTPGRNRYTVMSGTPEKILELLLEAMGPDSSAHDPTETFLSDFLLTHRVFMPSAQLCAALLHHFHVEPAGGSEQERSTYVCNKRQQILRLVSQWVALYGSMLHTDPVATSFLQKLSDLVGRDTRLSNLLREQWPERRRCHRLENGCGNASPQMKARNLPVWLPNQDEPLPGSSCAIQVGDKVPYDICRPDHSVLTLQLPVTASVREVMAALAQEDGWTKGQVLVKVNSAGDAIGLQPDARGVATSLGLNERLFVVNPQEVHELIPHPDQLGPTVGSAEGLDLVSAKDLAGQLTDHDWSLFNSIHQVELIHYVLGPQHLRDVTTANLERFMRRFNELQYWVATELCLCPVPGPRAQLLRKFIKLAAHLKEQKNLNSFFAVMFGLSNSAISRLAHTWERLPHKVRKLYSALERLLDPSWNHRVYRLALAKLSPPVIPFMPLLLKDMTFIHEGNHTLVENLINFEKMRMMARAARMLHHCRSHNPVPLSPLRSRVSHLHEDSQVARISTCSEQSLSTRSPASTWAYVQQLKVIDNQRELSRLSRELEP
# UniProt P21728, whole entry, looked up: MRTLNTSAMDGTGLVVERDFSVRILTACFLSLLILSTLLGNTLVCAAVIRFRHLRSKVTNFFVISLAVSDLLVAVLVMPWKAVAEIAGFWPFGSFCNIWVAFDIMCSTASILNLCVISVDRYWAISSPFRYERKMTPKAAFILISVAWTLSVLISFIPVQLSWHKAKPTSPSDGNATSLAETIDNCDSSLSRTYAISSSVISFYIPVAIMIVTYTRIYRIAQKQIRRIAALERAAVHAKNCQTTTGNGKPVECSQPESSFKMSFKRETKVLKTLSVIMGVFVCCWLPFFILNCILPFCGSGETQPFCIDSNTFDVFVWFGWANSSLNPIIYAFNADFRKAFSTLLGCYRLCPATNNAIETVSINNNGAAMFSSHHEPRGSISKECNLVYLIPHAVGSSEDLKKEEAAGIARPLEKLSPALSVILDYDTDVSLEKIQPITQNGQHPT
# UniProt C7C422: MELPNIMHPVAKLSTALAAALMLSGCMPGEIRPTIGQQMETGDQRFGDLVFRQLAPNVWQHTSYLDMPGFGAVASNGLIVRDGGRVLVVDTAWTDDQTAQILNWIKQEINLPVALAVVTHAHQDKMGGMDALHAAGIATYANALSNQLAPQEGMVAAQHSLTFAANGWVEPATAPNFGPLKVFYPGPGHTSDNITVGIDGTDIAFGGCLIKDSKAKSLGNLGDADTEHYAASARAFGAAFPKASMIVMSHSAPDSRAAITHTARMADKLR
# UniProt Q9UBT6: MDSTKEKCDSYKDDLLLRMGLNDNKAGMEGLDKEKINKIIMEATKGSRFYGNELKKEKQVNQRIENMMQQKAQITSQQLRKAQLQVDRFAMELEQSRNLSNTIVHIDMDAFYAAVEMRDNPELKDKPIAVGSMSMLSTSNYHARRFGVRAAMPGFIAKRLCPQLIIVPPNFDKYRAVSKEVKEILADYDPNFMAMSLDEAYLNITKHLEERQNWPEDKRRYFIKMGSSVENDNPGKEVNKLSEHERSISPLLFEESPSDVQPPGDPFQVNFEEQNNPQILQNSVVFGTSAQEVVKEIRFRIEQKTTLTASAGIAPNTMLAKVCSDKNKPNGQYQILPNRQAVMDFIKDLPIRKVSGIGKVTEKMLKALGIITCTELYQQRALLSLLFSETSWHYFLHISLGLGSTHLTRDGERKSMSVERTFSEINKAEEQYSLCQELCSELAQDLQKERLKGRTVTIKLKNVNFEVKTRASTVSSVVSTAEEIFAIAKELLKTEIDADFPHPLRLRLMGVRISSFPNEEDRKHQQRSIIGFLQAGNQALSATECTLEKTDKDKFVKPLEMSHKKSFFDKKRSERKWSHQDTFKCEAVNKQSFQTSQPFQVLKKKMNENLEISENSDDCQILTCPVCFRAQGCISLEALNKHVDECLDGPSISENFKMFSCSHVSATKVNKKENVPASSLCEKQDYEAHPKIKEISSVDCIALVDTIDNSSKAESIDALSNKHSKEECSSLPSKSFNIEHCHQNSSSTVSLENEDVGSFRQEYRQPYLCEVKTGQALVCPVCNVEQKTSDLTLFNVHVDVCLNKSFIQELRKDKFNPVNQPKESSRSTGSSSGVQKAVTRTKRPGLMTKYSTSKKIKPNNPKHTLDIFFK
# UniProt P11712, whole entry, looked up: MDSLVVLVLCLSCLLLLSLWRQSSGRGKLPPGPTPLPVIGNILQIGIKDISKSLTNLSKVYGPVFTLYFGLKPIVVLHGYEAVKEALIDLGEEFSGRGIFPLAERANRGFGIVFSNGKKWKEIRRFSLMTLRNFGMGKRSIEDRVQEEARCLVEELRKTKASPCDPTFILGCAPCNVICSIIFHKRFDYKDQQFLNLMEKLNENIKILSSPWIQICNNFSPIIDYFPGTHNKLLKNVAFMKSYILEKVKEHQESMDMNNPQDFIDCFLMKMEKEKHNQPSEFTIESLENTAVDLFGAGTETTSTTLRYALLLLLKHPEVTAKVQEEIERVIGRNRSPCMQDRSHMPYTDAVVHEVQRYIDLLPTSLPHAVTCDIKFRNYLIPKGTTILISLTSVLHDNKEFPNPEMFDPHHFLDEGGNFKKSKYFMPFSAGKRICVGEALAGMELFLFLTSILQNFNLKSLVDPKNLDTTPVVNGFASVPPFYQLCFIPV
# UniProt P03372, whole entry, looked up: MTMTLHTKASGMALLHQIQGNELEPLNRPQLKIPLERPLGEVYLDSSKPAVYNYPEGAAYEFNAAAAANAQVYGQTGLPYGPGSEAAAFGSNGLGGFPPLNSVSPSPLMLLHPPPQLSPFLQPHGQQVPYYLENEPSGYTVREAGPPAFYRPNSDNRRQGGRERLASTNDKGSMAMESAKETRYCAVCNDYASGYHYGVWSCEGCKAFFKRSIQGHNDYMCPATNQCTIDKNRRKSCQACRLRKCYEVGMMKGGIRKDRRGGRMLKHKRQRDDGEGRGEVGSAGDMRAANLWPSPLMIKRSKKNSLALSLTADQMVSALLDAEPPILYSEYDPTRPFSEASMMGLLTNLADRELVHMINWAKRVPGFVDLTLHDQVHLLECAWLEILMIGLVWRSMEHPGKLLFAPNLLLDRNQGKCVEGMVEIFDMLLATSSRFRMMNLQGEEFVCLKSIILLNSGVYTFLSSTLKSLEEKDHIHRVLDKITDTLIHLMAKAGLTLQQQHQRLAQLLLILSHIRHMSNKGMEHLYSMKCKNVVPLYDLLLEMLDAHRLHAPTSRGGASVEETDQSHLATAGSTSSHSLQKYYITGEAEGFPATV
# UniProt Q03181: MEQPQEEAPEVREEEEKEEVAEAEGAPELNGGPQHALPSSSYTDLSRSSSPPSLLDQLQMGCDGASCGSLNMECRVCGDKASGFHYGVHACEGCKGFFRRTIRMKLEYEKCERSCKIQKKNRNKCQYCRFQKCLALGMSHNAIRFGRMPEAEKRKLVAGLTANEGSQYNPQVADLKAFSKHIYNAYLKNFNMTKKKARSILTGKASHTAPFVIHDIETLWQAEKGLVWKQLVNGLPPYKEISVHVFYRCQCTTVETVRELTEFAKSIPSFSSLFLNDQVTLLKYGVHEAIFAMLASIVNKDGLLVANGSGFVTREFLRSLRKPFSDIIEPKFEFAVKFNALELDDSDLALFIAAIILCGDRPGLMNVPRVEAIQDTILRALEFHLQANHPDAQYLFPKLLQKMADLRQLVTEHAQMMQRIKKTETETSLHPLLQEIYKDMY
# UniProt P19793: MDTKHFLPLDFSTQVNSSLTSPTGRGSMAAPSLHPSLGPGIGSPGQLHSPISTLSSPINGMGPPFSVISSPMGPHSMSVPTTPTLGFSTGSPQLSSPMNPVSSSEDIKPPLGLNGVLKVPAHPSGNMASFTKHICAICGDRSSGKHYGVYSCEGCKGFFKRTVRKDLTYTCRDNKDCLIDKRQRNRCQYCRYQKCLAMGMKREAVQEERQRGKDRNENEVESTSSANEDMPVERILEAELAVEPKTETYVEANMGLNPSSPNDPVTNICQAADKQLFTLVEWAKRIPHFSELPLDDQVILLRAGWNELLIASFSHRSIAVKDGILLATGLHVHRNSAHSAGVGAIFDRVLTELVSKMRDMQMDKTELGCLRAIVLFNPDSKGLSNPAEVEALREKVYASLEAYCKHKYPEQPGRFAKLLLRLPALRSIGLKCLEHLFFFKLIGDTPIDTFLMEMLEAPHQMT
# UniProt O94925: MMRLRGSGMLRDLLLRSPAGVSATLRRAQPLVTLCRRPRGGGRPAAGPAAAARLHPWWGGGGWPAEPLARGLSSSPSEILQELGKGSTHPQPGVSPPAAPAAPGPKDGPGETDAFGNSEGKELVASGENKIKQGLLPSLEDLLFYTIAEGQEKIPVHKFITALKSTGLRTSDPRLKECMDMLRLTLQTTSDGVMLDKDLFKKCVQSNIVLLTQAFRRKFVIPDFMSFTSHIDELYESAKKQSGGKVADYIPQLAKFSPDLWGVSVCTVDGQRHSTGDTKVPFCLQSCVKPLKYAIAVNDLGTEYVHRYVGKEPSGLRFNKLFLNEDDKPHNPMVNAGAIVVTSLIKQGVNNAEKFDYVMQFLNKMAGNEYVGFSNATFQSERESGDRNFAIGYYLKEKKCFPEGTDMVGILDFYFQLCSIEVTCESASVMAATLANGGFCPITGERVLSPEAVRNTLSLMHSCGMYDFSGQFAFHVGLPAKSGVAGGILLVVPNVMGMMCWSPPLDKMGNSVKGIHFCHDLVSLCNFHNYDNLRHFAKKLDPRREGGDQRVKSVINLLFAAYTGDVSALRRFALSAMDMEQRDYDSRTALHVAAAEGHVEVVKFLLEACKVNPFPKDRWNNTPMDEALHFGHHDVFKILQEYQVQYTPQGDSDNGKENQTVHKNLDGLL
# This list was built around the results that the source calls inconclusive (neither active nor inactive); the mix of calls is not that of the screen. For part of these data: Potencies of inconclusive entries are doubtful fits and often do not repeat. Calls of active or inactive are those of the source. Unless noted, the call rests on the fitted dose curve; in most records, active means well fitted curve in the direction sought with a large enough effect; inconclusive means small, poorly fitted or top-dose-only effect, or another doubt; inactive means no such curve, though single readings can be large; an effect the other way counts as inactive or inconclusive.
# What was measured:
# [1] = molecular target: Rap guanine nucleotide exchange factor 3 (Homo sapiens) (UniProt O95398); assay: Counterscreen qHTS for agonist of cAMP-regulated guanine nucleotide exchange factor 3 (EPAC1) (AID 1645889); further: potency means the concentration at half of the fitted maximal effect; nearly all actives have a fitted effect of over 40% in size
# Summary of the method: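 Rap1B-BODIPY-GDP 250 nM + GDP 50 uM; cpds 7-pt, final 9.74 nM–152 uM (activator mode) or from 7.32 nM upwards (inhibitor mode); RT; FI 480/540 nm at 5 and 30 min, then ± cAMP, reread.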
# [2] = molecular target: D(1A) dopamine receptor (Homo sapiens) (UniProt P21728); assay: HTS Assay for Allosteric Agonists of the Human D1 Dopamine Receptor: Primary Screen for Potentiators (AID 488982); further: potency means the concentration at half of the fitted maximal effect
# Summary of the method: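 Calcium flux in an inducible, force-coupled HEK293 Trex D1 line (overnight at 30 C): agonist mode is the 180 s kinetic read after compound; potentiator mode is the following 180 s read after dopamine at EC20.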
# [3] = HTS Assay for Allosteric Antagonists of the Human D2 Dopamine Receptor: Hit Validation in HTRF (AID 624455); details: Cells stably expressing D1 dopamine receptor, inhibition mode;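 further: stable D1 dopamine receptor cell line scored for blocking the D1 response; potency means the concentration at half of the fitted maximal effect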
# Summary of the method: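 Validation of hits used D1 receptor stably expressed in cells with HTRF detection of response inhibition; origin screen measured calcium flux following EC80 dopamine in a force-coupled, inducible Hek293 Trex D2 cell line.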
# [4] = molecular target: Metallo-beta-lactamase type 2 (Klebsiella pneumoniae) (UniProt C7C422); assay: qHTS to identify inhibitors of the New Delhi Metallo-beta-lactamase (NDM): assay validation screen against the NCATS LOPAC Collection (AID 1794843); further: potency means the concentration at half of the fitted maximal effect
# Summary of the method: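 Nitrocefin hydrolysis (50 uM substrate stock) by NDM-1, 2 nM final, was followed by 485 nm absorbance after compound preincubation; buffer was 50 mM HEPES pH 7.0, 1 uM ZnSO4, 0.01% Tween20.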
# [5] = Quantitative High-Throughput drug screen in 47 multiple myeloma cell lines against the NCATS MIPE library collection: OPM2_DSMZ cell viability assay (AID 1919872); further: potency means the concentration at half of the fitted maximal effect; nearly all actives have a fitted effect of over 30% in size
# Summary of the method: (§1)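 Approved and investigational drugs from MIPE 4.0 were added by pin tool to 500 cells per well. After 48 hours at 37C, ATP-based CellTiter-Glo luminescence indicated remaining viability.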
# [6] = molecular target: DNA polymerase kappa (Homo sapiens) (UniProt Q9UBT6); assay: qHTS for Inhibitors of Polymerase Kappa: Confirmatory Assay for Cherry-picked Compounds (AID 720501); details: purified Pol-kappa, fluorescent strand-displacement substrate; further: potency means the concentration at half of the fitted maximal effect
# Summary of the method: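 Strand-displacement fluorescence read-out: TAMRA reporter released from a BHQ-2-quenched template, measured at 525/598 nm over a 10 min kinetic window. Substrate was 50 nM final; enzyme was 10 nM Pol-kappa, preincubated 15 min at room temperature with compound.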
# [7] = molecular target: Cytochrome P450 2C9 (Homo sapiens) (UniProt P11712); assay: qHTS Assay for Inhibitors and Substrates of Cytochrome P450 2C9 (AID 883); further: potency means the concentration at half of the fitted maximal effect; nearly all actives have a fitted effect of over 60% in size
# Summary of the method: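 Inhibition of CYP2C9 is scored as loss of luminescence, with 57uM sulphaphenazole defining 100% inhibition. Substrate Luciferin-H is used at 100uM, equal to its KM; enzyme at 10nM in 25mM KPO4, 60 min at 37C with NADPH regeneration.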
# HEK293T = assay: qHTS assay to identify novel small-molecules to repurpose for Merkel cell carcinoma treatment (AID 1296009); details: MCC and control cell lines, CellTiter-Glo viability, 72 h; at 9.27 µM (top of the series) unless noted; further: nearly all actives have a fitted effect of over 60% in size
# Summary of the method: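 Cell viability measured by CellTiter-Glo following 72 hr compound treatment at 37 degree celsius, with NPC and MIPE libraries tested in 8- and 11-point concentration series.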
# [8] = molecular target: Luciferin 4-monooxygenase (Photinus pyralis) (UniProt P08659); assay: Primary firefly luciferase (FLuc) qHTS assay for identification of artifact compounds. (AID 1845220); further: nearly all actives have a fitted effect of over 60% in size
# Summary of the method: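 Cell-free, 1536-well qHTS. Buffer pH 7.6 with 0.01% Tween-20 and 0.05% BSA; 10 uM D-luciferin, 10 uM ATP; 10 nM P. pyralis luciferase; luminescence after 5 min.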
# [9] = Cell Proliferation Assay against the TMD8 Cell Line (Caspase readout at 16 hrs) (AID 651712); details: TMD8 lymphoma cells, caspase activation luminescence; further: potency means the concentration at half of the fitted maximal effect
# Summary of the method: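 Caspase-Glo luminescence measured apoptosis after a 16 h, 37 C compound exposure of TMD8 cells (500 cells/well, 5% FBS RPMI). DMSO set 0% and bortezomib at 9.2 uM final set 100% activity.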
# [10] = Cell Proliferation Assay against the TMD8 Cell Line (Caspase readout at 8 hrs) (AID 651713); details: TMD8 lymphoma cells, caspase activation luminescence; further: potency means the concentration at half of the fitted maximal effect
# Summary of the method: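 Luminescent caspase 3/7 assay; TMD8 cells, 8 h treatment at 37C, 5% CO2. Normalisation: DMSO 0%, 9.2 uM bortezomib 100%.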
# [11] = qHTS of pediatric cancer cell lines to identify multiple opportunities for drug repurposing: Confirmatory screen for SK-N-MC cells (AID 1347111);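 further: potency means the concentration at half of the fitted maximal effect; cells exposed to compound for 48 h before the readout; nearly all actives have a fitted effect of over 70% in size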
# Summary of the method: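 Seed 500-1,000 cells/well; rest 5 h at 37 degrees C. Pin-transfer compounds, 11-point titration. Incubate 48 h. Add CellTiter-Glo, 15 min RT, read luminescence.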
# [12] = NCATS anti-infectives library activity on HEK293 viability as a counter-qHTS vs the C. elegans viability qHTS (AID 1745854);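 further: potency means the concentration at half of the fitted maximal effect; HEK293 cells exposed to compounds for 24 hr before the viability read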
# Summary of the method: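 Compound titrations (final up to 41.7 uM) were incubated with HEK293 cells for 24 hr at 37C under 5% CO2. Viable cells were quantified with CellTiter-Glo after 10 min at ambient temperature.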
# [13] = molecular target: Estrogen receptor (Homo sapiens) (UniProt P03372); assay: qHTS assay for small molecule antagonists of estrogen receptor alpha signaling (AID 588513; active means well fitted curve in the direction sought with a large enough effect in the signal ratio, with a control signal flat, not every such curve was filed as active; inconclusive means small, poorly fitted or top-dose-only effect, or effect the other way, or a change in a side signal; inactive means no such curve, though single readings can be large or run the other way; the % refers to the signal ratio; further: on the % scale 0 is the no-effect control and ±100 the full control effect); details: ER-alpha-UAS-bla HEK293, beta-lactamase ratio, antagonist mode; activity, negative = inhibition: at 76.9 µM (top of the series) unless noted
# Summary of the method: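 Cells were plated at 5000/well and incubated 4 h at 37 C. Compounds were added as 1:2 dilution series, duplicates. 17-beta-estradiol (0.5nM final) was added for 18 h before CCF4 detection.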
# [14] = molecular target: Bile acid receptor (Homo sapiens) (UniProt Q96RI1); assay: qHTS assay for small molecule agonists of farnesoid X receptor signaling (AID 588527; calls by dose curve;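 further: 0% = vehicle basal and 100% = reference agonist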); details: HEK293T FXR-UAS-bla, beta-lactamase ratio, 16 h; activation: hits give high values
# Summary of the method: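 Quantitative HTS used FXR-UAS-bla HEK293T cells with 16 h compound incubation at 37 C. EC50 values came from concentration-response curves normalized to chenodeoxycholic acid.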
# [15] = molecular target: Peroxisome proliferator-activated receptor delta (Homo sapiens) (UniProt Q03181); assay: qHTS assay for small molecule antagonists of peroxisome proliferator-activated receptor delta signaling (AID 588535; active means well fitted inhibition curve with a large enough effect in the signal ratio, with a control signal flat, not every such curve was filed as active; inconclusive means small, poorly fitted or top-dose-only effect, or effect the other way, or a change in a side signal; inactive means no such curve, though single readings can be large or run the other way; the % refers to the signal ratio); details: HEK293T PPARd-UAS-bla, beta-lactamase FRET ratio, 18 h; activity change, negative = inhibition: at 76.7 µM (top of the series)
# Summary of the method: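 Antagonist-mode qHTS using GeneBLAzer PPAR-delta-UAS-bla HEK293T cells; compound exposure 18 hrs at 37 C over a titration. Ratiometric CCF4 fluorescence at 460/530 nm; concentration-response points fitted to the Hill equation.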
# [16] = molecular target: Retinoic acid receptor RXR-alpha (Homo sapiens) (UniProt P19793); assay: qHTS assay for small molecule agonists of retinoid X receptor alpha signaling (AID 588544; calls by dose curve;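 further: 0% = DMSO basal wells and 100% = reference agonist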); details: HEK293T RXRa-UAS-bla, beta-lactamase reporter, 18 h; activation: at 76.7 µM (top of the series)
# [17] = molecular target: Glutaminase kidney isoform, mitochondrial (Homo sapiens) (UniProt O94925); assay: qHTS for Inhibitors of Glutaminase (GLS): LOPAC Validation (AID 624146); further: nearly all actives have a fitted effect of over 60% in size; further: potency means the concentration at half of the fitted maximal effect;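 on activity change, negative = inhibition: glutamate product detected by oxidase and peroxidase coupled Amplex red fluorescence gain; on the % scale 0 is the no-effect control and ±100 the full control effect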
# Summary of the method: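 Compounds were pin-transferred onto hKGA, after which L-glutamine (1 mM solution) and a detection mix of glutamate oxidase, HRP and Amplex Red were added. Initial and 30 min RT fluorescence reads were collected.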
# [18] = Quantitative High-Throughput drug screen in 47 multiple myeloma cell lines against the NCATS MIPE library collection: FR4_PLB cell viability assay (AID 1918924; further: nearly all actives have a fitted effect of over 35% in size; further: potency means the concentration at half of the fitted maximal effect)
# Summary of the method: as §1
# [19] = Quantitative High-Throughput drug screen in 47 multiple myeloma cell lines against the NCATS MIPE library collection: INA6_PLB cell viability assay (AID 1918965; further: potency means the concentration at half of the fitted maximal effect; nearly all actives have a fitted effect of over 55% in size)
# Summary of the method: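 Inhibition of cell viability is measured here. Each line was plated at 500 cells per well, treated with MIPE 4.0 drugs, kept 48 hours at 37C, then assayed for ATP content by CellTiter-Glo luminescence.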
smiles,measurement,setting,value
C=C1c2cccc(O)c2C(O)=C2C(=O)[C@]3(O)C(O)=C(C(N)=O)C(=O)[C@@H](N(C)C)[C@@H]3[C@@H](O)[C@H]12,Potency,[1],"inconclusive: 11200 nM [activator, full curve, poor fit]"
CN1CCN(CC(=O)N2c3ccccc3C(=O)Nc3cccnc32)CC1,Potency,[2],"inconclusive: 1640 nM [activator, partial curve, poor fit]"
same,Potency,[3],active: 3660 nM
same,Potency,[4],"inconclusive: 20000 nM [inhibitor, single point]"
CNC(=O)CN1CCC(Oc2cc3c(Nc4cccc(Cl)c4F)ncnc3cc2OC)CC1,Potency,[5],active: 83.3 nM
COc1ccc(-c2cc(=O)c3c(O)cc(O[C@@H]4O[C@H](CO[C@@H]5O[C@@H](C)[C@H](O)[C@@H](O)[C@H]5O)[C@@H](O)[C@H](O)[C@H]4O)cc3o2)cc1O,Potency,[6],active: 18900 nM
O=C1C(=O)c2ccccc2C(O)=C1C1CCC(c2ccc(Cl)cc2)CC1 (centres undefined),Potency,[7],active: 2000 nM
C=C[C@H]1[C@H](O[C@@H]2O[C@H](CO)[C@@H](O)[C@H](O)[C@H]2O)OC=C(C(=O)OC)[C@H]1C[C@@H]1N[C@H](C(=O)O)Cc2c1[nH]c1ccccc21,outcome,HEK293T,inactive [at 17.4 µM]
CC(/C=C/C1(O)C(C)CC(O)CC1(C)C)OC1OC(CO)C(O)C(O)C1O (centres undefined),Potency,[8],inactive
CO[C@@H]1[C@H](N(C)C(=O)c2ccccc2)C[C@H]2O[C@]1(C)n1c3ccccc3c3c4c(c5c6ccccc6n2c5c31)C(=O)NC4,Potency,[9],active: 2090 nM
same,Potency,[10],"inconclusive: 2090 nM [activator, full curve]"
same,Potency,[11],"inconclusive: 2610 nM [cytotoxic, full curve, poor fit]"
same,Potency,[12],"inconclusive: 2000 nM [cytotoxic, partial curve, poor fit]"
Cc1c(N(C)C)c(=O)n(-c2ccccc2)n1C,"activity, negative = inhibition",[13],inconclusive: -49%
same,activation,[14],inconclusive: 11.5%
same,"activity change, negative = inhibition",[15],inconclusive: -33.7%
CCCCNC(=O)NS(=O)(=O)c1ccc(C)cc1,activation,[16],inconclusive: -22.5%
C[C@]12CC[C@@H]3c4ccc(O)cc4CC[C@H]3[C@@H]1CCC2=O,Potency,[16],inactive
same,Potency,[17],inactive
CO[C@@]1(NC(=O)CSCC#N)C(=O)N2C(C(=O)O)=C(CSc3nnnn3C)CS[C@@H]21,Potency,[17],"inconclusive: 10000 nM [inhibitor, partial curve]"
C[C@H]1C[C@H]2[C@@H]3CCC4=CC(=O)C=C[C@]4(C)[C@@H]3C(=O)C[C@]2(C)[C@@]1(O)C(=O)CO,Potency,[18],inactive
same,Potency,[19],"inconclusive: 2960 nM [cytotoxic, full curve, poor fit]"
COc1ccc(CCC(=O)c2c(O)cc(O[C@@H]3O[C@H](CO)[C@@H](O)[C@H](O)[C@@H]3O[C@@H]3O[C@@H](C)[C@H](O)[C@@H](O)[C@@H]3O)cc2O)cc1O,Potency,[18],inconclusive: 1 nM
same,Potency,[19],"inconclusive: 4.2 nM [rising, full curve, poor fit]"

# 5 entries from above, with tabs:
smiles	measurement	setting	value
CC(/C=C/C1(O)C(C)CC(O)CC1(C)C)OC1OC(CO)C(O)C(O)C1O (centres undefined)	Potency	[8]	inactive
CO[C@@H]1[C@H](N(C)C(=O)c2ccccc2)C[C@H]2O[C@]1(C)n1c3ccccc3c3c4c(c5c6ccccc6n2c5c31)C(=O)NC4	Potency	[9]	active: 2090 nM
same	Potency	[10]	inconclusive: 2090 nM [activator, full curve]
same	Potency	[11]	inconclusive: 2610 nM [cytotoxic, full curve, poor fit]
same	Potency	[12]	inconclusive: 2000 nM [cytotoxic, partial curve, poor fit]
